Reference: publication PMC5507668
Results are given in words; binding and its absence hold for the method and conditions named. Binding seen in cells or lysates may run through a third protein. Here binding means that the protein was enriched with, or labelled near, the bait; the list need not be complete. Where a sequence is shown, tags or fusion partners need not be part of it.

By UniProt entry, the sequences of proteins in these tests, tags left out.
UniProt P29341: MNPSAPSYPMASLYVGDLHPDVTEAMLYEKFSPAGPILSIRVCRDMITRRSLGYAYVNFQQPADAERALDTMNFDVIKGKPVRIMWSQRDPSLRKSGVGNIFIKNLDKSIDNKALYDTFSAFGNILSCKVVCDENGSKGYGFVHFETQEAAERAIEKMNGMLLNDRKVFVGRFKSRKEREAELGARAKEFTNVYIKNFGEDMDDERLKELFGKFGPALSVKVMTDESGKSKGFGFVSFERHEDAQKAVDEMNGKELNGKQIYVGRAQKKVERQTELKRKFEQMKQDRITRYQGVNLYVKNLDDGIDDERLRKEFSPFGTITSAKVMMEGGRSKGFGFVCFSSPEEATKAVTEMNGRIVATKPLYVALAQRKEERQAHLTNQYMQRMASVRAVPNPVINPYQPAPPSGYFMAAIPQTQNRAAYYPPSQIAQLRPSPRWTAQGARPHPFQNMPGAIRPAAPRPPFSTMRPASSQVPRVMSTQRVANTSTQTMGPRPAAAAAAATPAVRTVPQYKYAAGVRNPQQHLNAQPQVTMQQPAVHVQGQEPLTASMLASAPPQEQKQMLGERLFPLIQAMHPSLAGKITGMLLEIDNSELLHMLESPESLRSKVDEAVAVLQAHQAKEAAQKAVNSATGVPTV

T1: endogenous Zfp36 with a knocked-in V5 epitope tag (Zfp36-V5) (mouse (endogenous in BMDMs of the knock-in mouse)) (UniProt P22893)
T1 sequence: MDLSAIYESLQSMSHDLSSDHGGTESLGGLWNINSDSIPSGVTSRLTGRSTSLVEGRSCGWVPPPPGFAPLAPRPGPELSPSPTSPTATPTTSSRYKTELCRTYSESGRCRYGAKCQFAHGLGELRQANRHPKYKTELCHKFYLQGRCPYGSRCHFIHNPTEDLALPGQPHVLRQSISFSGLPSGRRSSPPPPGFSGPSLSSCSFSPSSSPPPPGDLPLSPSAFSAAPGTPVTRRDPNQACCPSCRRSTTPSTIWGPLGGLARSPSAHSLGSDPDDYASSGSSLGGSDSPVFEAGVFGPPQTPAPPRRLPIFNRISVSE


Target: T1, endogenous Zfp36 with a knocked-in V5 epitope tag (Zfp36-V5) (mouse (endogenous in BMDMs of the knock-in mouse))
Assay: affinity purification with mass spectrometry; IP of endogenous Zfp36-V5 with a V5 antibody (IgG as control) from BMDMs after 4 hr of LPS, with RNaseA; tandem mass-tag quantitative proteomics, three biological replicas

binding | Molecule
binds | cytoplasmic poly(A)-binding protein 1 (Pabpc1), endogenous (from UniProt P29341 1-636)
binds | 14-3-3θ, endogenous (protein, UniProt P68254 1-245) MEKTELIQKAKLAEQAERYDDMATCMKAVTEQGAELSNEERNLLSVAYKNVVGGRRSAWRVISSIEQKTDTSDKKLQLIKDYREKVESELRSICTTVLELLDKYLIANATNPESKVFYLKMKGDYFRYLAEVACGDDRKQTIENSQGAYQEAFDISKKEMQPTHPIRLGLALNFSVFYYEILNNPELACTLAKTAFDEAIAELDTLNEDSYKDSTLIMQLLRDNLTLWTSDSAGEECDAAEGAEN
